# Test results published in paper PMC12040169 (PLOS Biology, 2025).
# The other results are listed elsewhere or left out.
# Tested on: T1, CTL2-GFP (C. trachomatis L2/434/Bu, GFP-expressing)
# T1 construct: L2/434/Bu, GFP-expressing
# Parameters: species or system HeLa; Intracellular C. trachomatis growth in HeLa cells, bulk GFP fluorescence relative to DMSO
# Conditions: bulk GFP, single well; 28.5 h, 10 µM; inhibitor
row,SMILES,% of control remaining
1,COc1ccc(CN2CCOCC2)cc1Br [CBK027346],108.506%
2,Oc1noc(O)c1-c1ncc(C(F)(F)F)cc1Cl [CBK007439],150.794%
3,O=C(Cc1c[nH]c2ccccc12)N1CCC2(CCN(C(=O)c3cccnc3)C2)C1 (centres unmarked) [CBK131453],118.608%
4,C=CCNC(=O)CCn1c(C(C)C)cc2cccnc21 [CBK283289],92.0257%
5,CCC(C)(C)c1ccc(S(=O)(=O)N(CCC#N)Cc2cccnc2)cc1 [CBK043960],119.65%
6,CCCn1c(SCc2csc(COc3ccc(Cl)cc3)n2)n[nH]c1=O [CBK295140],145.046%
7,COc1ccc(C(=O)N2CCC3(CCCN(Cc4nc5ccccc5[nH]4)C3)C2)cc1OC (centres unmarked) [CBK132847],100%
8,CCOc1ccc(S(=O)(=O)N2CCCN(Cc3c[nH]c(C)n3)CC2)c2cccnc12 [CBK063031],79.8064%
9,c1ccc(SCCCSc2ccccn2)cc1 [CBK021704],155.223%
10,COc1cc(C)nc(NCc2cnn(C)c2C)n1 [CBK306277],171.903%
11,COCC(=O)N[C@H]1C[C@@H](Cc2cc(C(C)(C)C)on2)C1(C)C [CBK289244],120.419%
12,CCOC(=O)c1cnc(SCC(=O)N2c3ccccc3SC3C=CC=CC32)nc1N (centres unmarked) [CBK269029],139.846%
13,COc1ccc(CCN(CCN2CCOCC2)C(=O)NCc2ccc3c(c2)OCO3)cc1OC [CBK160540],60.2508%
14,Cc1nc(C)c(CCC(=O)NC2CCSc3c(F)cccc32)c(=O)[nH]1 (centres unmarked) [CBK295601],145.089%
15,COc1cc(C(=O)N2CCC3(CCN(C(=O)Cc4c[nH]c5ccccc45)C3)C2)cc(OC)c1OC (centres unmarked) [CBK131448],112.456%
16,Cc1[nH]c(=O)[nH]c(=O)c1N(CCO)CCO [CBK262052],119.039%
17,CC(C)(C)OC(=O)N1CCN(c2cc(N)ncn2)CC1 [CBK001963],72.5018%
18,CCN(CC)c1cc(N2CCCNCC2)ccc1S(=O)(=O)c1cccc(F)c1 [CBK018509C],132.842%
19,CC(C)C(CNCc1ccn(C)c1)c1ccnn1C (centres unmarked) [CBK304822],95.1788%
20,O=C(COc1ccccc1)N1CCN(Cc2ccncc2)CC1 [CBK072595],117.634%
21,COc1ccc(Cc2nc(C(C)(C)C)cs2)cc1 [CBK021497B],134.316%
22,O=C(Cn1cnnn1)N1CCN(Cc2ccccc2)CC1 [CBK026053],114.121%
23,CC(C)(C)OC(=O)c1cc(C(=O)O)ccc1O [CBK000394],122.055%
24,Cc1cc(-c2cn3cc(C(=O)NCCN(C)C)nc3c(=O)n2C)c(C)o1 [CBK307160],97.4271%
25,Cc1ccc(C2(C(=O)N(C)CCN3CCCCC3)CCOCC2)cc1 [CBK281833],118.367%

# Random excerpt: three records from the list, in no set order.
row,SMILES,% of control remaining
9,c1ccc(SCCCSc2ccccn2)cc1 [CBK021704],155.223%
17,CC(C)(C)OC(=O)N1CCN(c2cc(N)ncn2)CC1 [CBK001963],72.5018%
16,Cc1[nH]c(=O)[nH]c(=O)c1N(CCO)CCO [CBK262052],119.039%

# (listing goes on)

row,SMILES,% of control remaining
1,CC1(C)CC(NC(=O)c2cc3cccnc3[nH]2)CCO1 (centres unmarked) [CBK305467],116.037%
2,N#Cc1c(NC(=O)CSc2nnc(-c3ccncc3)o2)sc2c1CCCC2 [CBK266374],142.537%
3,O=C1C2C(c3ccc(F)cc3)NC(c3ccc(F)cc3)C1C(c1ccc(F)cc1)NC2c1ccc(F)cc1 (centres unmarked) [CBK261288],83.5709%
4,CCCC/C=C/c1cncc(Nc2cc(OC)c(OC)c(OC)c2)n1 [CBK065155],113.073%
5,CCN(CC)C(=O)CN1CCN(c2nccnc2Oc2ccc(OC)c(OC)c2)CC1 [CBK083051T],141.036%
6,COc1cccc(C(c2nnnn2C(C)(C)C)N2CCN(c3cccc(Cl)c3)CC2)c1 (centres unmarked) [CBK141669],101.947%
7,COc1ccc(-c2ccc3c(c2)C(=O)N2CC[C@H](NC(=O)C4CCCC4)[C@H]2C(=O)N3)cc1 [CBK289330],141.826%
8,O=c1[nH]c(=O)c2nnc(N/N=C\c3ccc(O)cc3)nc2[nH]1 [CBK263312],95.4552%
9,O=C(NCCCN1CCOCC1)c1cnc(-c2ccccc2)c(-c2ccncc2)c1 [CBK036664],174.2%
10,Cc1ccccc1NC(=O)c1cnn2cccnc12 [CBK288217],148.609%
11,COc1ccc(NC(=S)NCCCN(C)C)cc1 [CBK264292],126.01%
12,COc1ccc(C2=CC(c3ccc(C(F)(F)F)cc3)n3nnnc3N2)cc1OC (centres unmarked) [CBK296131],107.677%
13,COc1ccc(S(=O)(=O)Nc2nnc(C(C)C)s2)cc1 [CBK045525],100%
14,CC(Sc1ccccn1)C(=O)Nc1ccc(S(N)(=O)=O)cc1 (centres unmarked) [CBK265579],123.144%
15,COc1cc(-c2cn3ccnc3c(NC3CC3)n2)cc(OC)c1OC [CBK066184],155.043%
16,CCCn1c(SC(C)C(=O)Nc2ccc(S(=O)(=O)NC(C)C)cc2)n[nH]c1=O (centres unmarked) [CBK295169],136.549%
17,COCCN1CCCC(NS(=O)(=O)c2cccc(C(C)=O)c2)C1 (centres unmarked) [CBK305290],113.076%
18,O=C(O)Cc1nnc(CNc2ccc(Cl)cc2)[nH]1 [CBK286651],106.732%
19,Cc1ccc(C)c(C(=O)C2=C(O)C(=O)N(CCCN3CCOCC3)C2c2cccc([N+](=O)[O-])c2)c1 (centres unmarked) [CBK265503],119.579%
20,COc1ccccc1CCCNC(=O)c1ccc(=O)n(C)c1 [CBK282636],113.822%
21,Cc1ccc(NC(=O)Cn2cnc3c(-c4ccccc4)csc3c2=O)cc1 [CBK287812],105.202%
22,O=S(=O)(c1ccc(F)cc1)c1nc(-c2cccs2)oc1N1CCN(Cc2ccccc2)CC1 [CBK267672],110.808%
23,CC(=O)Nc1ccccc1NC(=O)C(C)Oc1ccc(Cl)cc1Cl (centres unmarked) [CBK263954],96.5497%
24,CCc1nc2ccc(C(=O)N3CCNC(=O)C3)cn2c1N(CCC(C)C)CCN(C)C [CBK146255],115.143%
25,C#CCNC(=O)CC[C@H]1CNC(=O)[C@@H]2[C@@H](CCN2Cc2ccc(O)cc2)N1C [CBK289017],131.681%
